The results are deposited in PubChem (AID1159506; NCATS, 2015).

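Luminescence from an EWS-FLI1 target-promoter (NR0B1) reporter, set against a CMV-promoter reporter, two days after silencing single genes in TC32 Ewing sarcoma cells. Each siRNA was applied at 20 nM. A z-score of the log NR0B1-over-CMV signal, less the median of siRNAs with the same seed; more negative means a stronger specific loss of the NR0B1 reporter.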

The strongest results of the screen are mostly left out here. Sequences are the guide (antisense) strand, without overhang.

UUCUUGUACAGGUAAAAGA against SMAGP read seed-corrected z-score 1.757. Result for UCAGUGGAUAGGGCAACUC against KIZ was seed-corrected z-score 0.2161. UCUAAGUUCCUGAUAGUAG against LRRC46 read seed-corrected z-score -0.5718. Result for UCCUGUUAUCGACUGUUGC against SCRN3 was seed-corrected z-score 1.15. UUACUGAUGGACACCAUCU against EMG1 read seed-corrected z-score 0.4347. Result for UUCAUGUCUAGAAAUAGCA against LHX3 was seed-corrected z-score -1.121.

For UUUCCGAUCCACUAUCUCC against MOBP the result was seed-corrected z-score 0.1425. AAAGAUGUCAUAGUAGACU against FAM151A read seed-corrected z-score 0.557. For UCUUGAUUCACAUCCGUAG against TAC3 the result was seed-corrected z-score 0.402. Result for UUCUCGACCAGGAUCAAAG against STIL was seed-corrected z-score -0.3596. Result for UGGGAUUUCAAUAACUCUG against LOC101928697 was seed-corrected z-score 0.1542. Result for UUGGUUUGCAUUAACAUAG against MCMBP was seed-corrected z-score -1.04.

Result for AUGUUGGACAGCACAAUCC against IQSEC1 was seed-corrected z-score 0.7006. Result for UAUGCUUUGAAGGAUAAGG against ART3 was seed-corrected z-score 0.1143. For UUUGAUGAGAUCCAGGUAC against DMWD the result was seed-corrected z-score -0.3863. Result for UCUGUUUUCACCUUGUGGA against NPY4R was seed-corrected z-score 0.09944. For UUUCAUUCAUCCUCGGUCC against FAM92A1P2 the result was seed-corrected z-score -0.2678. UAAUUGGAGAUAUCACUAG against REV3L gave seed-corrected z-score 0.06652.

UGUCGGCACAUGGAAUCCC against GNB2 gave seed-corrected z-score 0.8434. UGGGUUUGAAAAAUCCGCC against LRRC52 gave seed-corrected z-score -0.1035. UCUCGAACUAUCUUCCUUC against DNAJA1 read seed-corrected z-score 0.307. Result for CCCAUCACAUGUCUCGAUC against KRT8P3 was seed-corrected z-score 0.7705. UGAUGUCUUGCUAAGAUUC against C6orf201 gave seed-corrected z-score -0.2577. Result for UAUCUUCCUUCGGUAGCUG against LOC150519 was seed-corrected z-score 1.863.

With UUCCUUUAUCCGGUUGUUU against LINC00176 the assay gave seed-corrected z-score -0.3406. AUCCUUACCAGCUGCAUGU against MFSD4A gave seed-corrected z-score -0.1248. UUUGAGUUUCUGAUGAGCU against MADCAM1 gave seed-corrected z-score 0.343.

The last 2 entries again:

* AUCCUUACCAGCUGCAUGU against MFSD4A | seed-corrected z-score -0.1248
* UUUGAGUUUCUGAUGAGCU against MADCAM1 | seed-corrected z-score 0.343